The other results are listed elsewhere or left out. The main result of the screen is listed elsewhere. These columns were measured beside it and carry no call. The list favours compounds with an active or inconclusive main result. Words in brackets tell the shape of the fitted curve; partial curves, single points and poor fits give uncertain potencies.
assay: qHTS Assay to Find Inhibitors of Chronic Active B-Cell Receptor Signaling; conditions: ABC-DLBCL IkBa-CBG/CBR reporter, luminescence ratio (green luciferase fused to IkBa over red control in TMD8 lymphoma cells), 4 h; measured here: CBR red luminescence, cell number
Method in brief: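 Cell line TMD8 (human ABC DLBCL), stably expressing tet-inducible CBG68-IkBa fusion and CBR; IMDM/0.5% FBS; cpd up to 46 uM; dox induction, 4 h, 37C/5% CO2; dual luminescence; green/red ratio; MG132 control.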

Compound | AC50
COc1cccc(NC(=O)CSCC(=O)Nc2ccccc2)c1 | 16.4 µM [falling, single point]
O=C(NCC(=O)N1CCN(C(c2ccccc2)c2ccccc2)CC1)c1ccc(Br)o1 | 5.62 µM [rising, single point]
O=C(N/N=C/C(Br)=C/c1ccccc1)c1ccncc1 | 11.2 µM [falling, partial curve, poor fit]
CCCCOc1ccccc1C(=O)NCCCC(=O)O | 6.51 µM [rising, single point]
COC(=O)CCS(=O)(=O)c1ccc(Cl)cc1 | 6.51 µM [falling, single point]
CC1=NN(c2ccccc2)C(=O)/C1=C/C=C/c1ccc(N(C)C)cc1 | 1.41 µM [rising, full curve]
CCOC(=O)c1c(NC(=O)C2CC=CCC2C(=O)O)sc(C)c1CC (centres undefined) | 7.08 µM [falling, partial curve]
CC1CCc2cccc3c2N1c1cc(C#N)c(C#N)cc1O3 (centres undefined) | 14.1 µM [rising, partial curve, poor fit]
Cc1ccc(C(=O)c2ccccc2C(=O)OCC(=O)Nc2cccc([N+](=O)[O-])c2)cc1 | 20.6 µM [falling, partial curve, poor fit]
NC(=O)c1ccsc1NC(=O)CSc1nc2ccccc2c(=O)n1CCCO | 16.4 µM [falling, single point]
O=C(O)c1ccc(CSc2nnc(-c3ccccc3Br)o2)cc1 | 7.08 µM [falling, full curve, poor fit]
O=C1CC(SCCO)C(=O)N1c1ccc(Oc2ccccc2)cc1 (centres undefined) | 0.291 µM [rising, full curve, poor fit]
CCCN(CC1COc2ccccc2O1)C(=S)Nc1ccc(C)cc1 (centres undefined) | 20.6 µM [falling, single point]
CNC(=O)c1[nH]cnc1C(=O)Nc1ccc(C)cc1 | 4.61 µM [falling, partial curve, poor fit]
Cc1cc(C(=O)Nc2nnc(C(F)(F)F)s2)no1 | 16.4 µM [falling, partial curve, poor fit]
COc1ccc(C)cc1NC(=O)c1ccccc1NS(=O)(=O)c1ccc(Cl)s1 | 11.2 µM [falling, partial curve, poor fit]
O=C(NC(=S)Nc1ccc(F)c([N+](=O)[O-])c1)c1ccccc1F | 35.5 µM [falling, single point]
c1ccc2c(-c3c[nH]c4ccccc34)c3ccccc3nc2c1 | 35.5 µM [falling, single point]
Cc1ccc(C(=O)N/N=C/c2ccoc2)cc1C | 11.2 µM [falling, partial curve, poor fit]

Structural class, the entries above with a Cl atom
Compound | AC50
COC(=O)CCS(=O)(=O)c1ccc(Cl)cc1 | 6.51 µM [falling, single point]
COc1ccc(C)cc1NC(=O)c1ccccc1NS(=O)(=O)c1ccc(Cl)s1 | 11.2 µM [falling, partial curve, poor fit]

From PubChem BioAssay AID493014 (National Center for Advancing Translational Sciences (NCATS), 2011)
